No constants are given. Whether binding was seen depends on the method and setting. Binding seen in cells or lysates may run through a third protein. Some entries that bind do so weakly or less than the wild type.
Legend:
[1] = molecular target: T1, PPARα, overexpressed in NRVMs (UniProt P37230); assay: co-IP; NRVMs overexpressing Fabp3 or Pparα, treated with or without Ang II for 24 h; immunoprecipitated with the antibody to the overexpressed protein (FABP3 or PPARα), western blot with indicated antibodies
T1 sequence: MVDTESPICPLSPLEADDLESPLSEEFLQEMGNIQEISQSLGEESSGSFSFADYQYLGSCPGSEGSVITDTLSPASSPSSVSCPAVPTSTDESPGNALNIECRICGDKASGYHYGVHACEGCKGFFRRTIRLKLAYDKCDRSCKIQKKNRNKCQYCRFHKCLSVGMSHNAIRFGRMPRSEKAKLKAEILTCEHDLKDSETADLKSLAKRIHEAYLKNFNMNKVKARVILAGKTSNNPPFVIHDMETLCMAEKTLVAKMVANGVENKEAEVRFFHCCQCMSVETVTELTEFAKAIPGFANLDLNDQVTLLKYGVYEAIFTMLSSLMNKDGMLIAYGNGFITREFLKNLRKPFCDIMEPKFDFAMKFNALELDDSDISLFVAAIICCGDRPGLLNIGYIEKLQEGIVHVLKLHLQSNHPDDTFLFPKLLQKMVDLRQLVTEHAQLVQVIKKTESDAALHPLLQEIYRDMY

Amino acid sequences for entries named in this document (tags omitted).
UniProt P05413: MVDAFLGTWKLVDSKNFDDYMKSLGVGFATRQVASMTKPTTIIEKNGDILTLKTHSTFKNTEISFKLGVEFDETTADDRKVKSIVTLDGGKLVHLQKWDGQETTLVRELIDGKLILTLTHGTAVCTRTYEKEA
UniProt P07483: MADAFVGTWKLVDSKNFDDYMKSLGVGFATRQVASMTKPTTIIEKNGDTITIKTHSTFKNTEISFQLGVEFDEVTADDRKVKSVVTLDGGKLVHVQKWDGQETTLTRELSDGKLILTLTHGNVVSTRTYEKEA

[2] = molecular target: fatty acid binding protein 3 (FABP3), overexpressed from lentivirus Lenti-F3 (UniProt P05413); assay: as above

For “FABP3 found in NRVMs with Pparα overexpression (from UniProt P07483 1-133)”, the binding [1] was “binds”.

B1: PPARα found in NRVMs with Fabp3 overexpression (protein, UniProt P37230 1-468)
chain: T1 sequence
For B1, the binding [2] was “binds”.

— PMC8387950
